Measurements as given in paper PMC5509740.
Results are given in words; binding and its absence hold for the method and conditions named. In cells and extracts the contact can be indirect. Here binding means that the protein was enriched with, or labelled near, the bait; the list need not be complete.

By UniProt entry, the sequences of proteins in these tests, tags left out. Residues count along the entry.
UniProt Q3UHD9: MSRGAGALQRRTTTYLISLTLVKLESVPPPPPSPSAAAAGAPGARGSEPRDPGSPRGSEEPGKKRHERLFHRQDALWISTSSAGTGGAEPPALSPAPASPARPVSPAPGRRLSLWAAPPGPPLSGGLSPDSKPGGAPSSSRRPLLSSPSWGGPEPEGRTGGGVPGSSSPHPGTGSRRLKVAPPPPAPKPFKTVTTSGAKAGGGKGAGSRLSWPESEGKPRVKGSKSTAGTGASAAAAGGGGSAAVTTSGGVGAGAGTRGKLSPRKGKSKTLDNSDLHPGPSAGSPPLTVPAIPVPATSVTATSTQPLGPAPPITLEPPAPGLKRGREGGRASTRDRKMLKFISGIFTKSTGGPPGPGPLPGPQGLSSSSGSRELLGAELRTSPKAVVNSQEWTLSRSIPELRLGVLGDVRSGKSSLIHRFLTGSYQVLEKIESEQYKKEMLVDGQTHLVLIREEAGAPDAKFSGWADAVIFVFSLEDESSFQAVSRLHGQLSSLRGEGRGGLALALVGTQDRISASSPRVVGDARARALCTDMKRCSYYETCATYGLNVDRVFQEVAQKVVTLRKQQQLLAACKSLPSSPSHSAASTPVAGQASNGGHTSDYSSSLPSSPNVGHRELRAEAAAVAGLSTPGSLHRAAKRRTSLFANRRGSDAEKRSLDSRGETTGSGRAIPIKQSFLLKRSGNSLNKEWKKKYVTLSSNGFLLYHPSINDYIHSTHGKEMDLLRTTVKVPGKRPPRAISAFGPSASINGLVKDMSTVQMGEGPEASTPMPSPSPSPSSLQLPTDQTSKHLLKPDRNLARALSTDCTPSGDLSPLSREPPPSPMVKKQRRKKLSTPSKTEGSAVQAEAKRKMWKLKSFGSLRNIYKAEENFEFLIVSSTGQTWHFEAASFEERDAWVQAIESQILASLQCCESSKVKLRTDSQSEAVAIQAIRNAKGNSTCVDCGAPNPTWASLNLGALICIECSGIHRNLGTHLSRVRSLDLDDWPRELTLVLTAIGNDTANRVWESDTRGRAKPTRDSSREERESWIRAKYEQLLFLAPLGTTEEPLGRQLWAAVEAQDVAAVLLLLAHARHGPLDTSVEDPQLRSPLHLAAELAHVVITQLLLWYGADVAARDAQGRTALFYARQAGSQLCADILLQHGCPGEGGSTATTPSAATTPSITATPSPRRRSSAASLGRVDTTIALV
UniProt Q14BI2, residues 19-872: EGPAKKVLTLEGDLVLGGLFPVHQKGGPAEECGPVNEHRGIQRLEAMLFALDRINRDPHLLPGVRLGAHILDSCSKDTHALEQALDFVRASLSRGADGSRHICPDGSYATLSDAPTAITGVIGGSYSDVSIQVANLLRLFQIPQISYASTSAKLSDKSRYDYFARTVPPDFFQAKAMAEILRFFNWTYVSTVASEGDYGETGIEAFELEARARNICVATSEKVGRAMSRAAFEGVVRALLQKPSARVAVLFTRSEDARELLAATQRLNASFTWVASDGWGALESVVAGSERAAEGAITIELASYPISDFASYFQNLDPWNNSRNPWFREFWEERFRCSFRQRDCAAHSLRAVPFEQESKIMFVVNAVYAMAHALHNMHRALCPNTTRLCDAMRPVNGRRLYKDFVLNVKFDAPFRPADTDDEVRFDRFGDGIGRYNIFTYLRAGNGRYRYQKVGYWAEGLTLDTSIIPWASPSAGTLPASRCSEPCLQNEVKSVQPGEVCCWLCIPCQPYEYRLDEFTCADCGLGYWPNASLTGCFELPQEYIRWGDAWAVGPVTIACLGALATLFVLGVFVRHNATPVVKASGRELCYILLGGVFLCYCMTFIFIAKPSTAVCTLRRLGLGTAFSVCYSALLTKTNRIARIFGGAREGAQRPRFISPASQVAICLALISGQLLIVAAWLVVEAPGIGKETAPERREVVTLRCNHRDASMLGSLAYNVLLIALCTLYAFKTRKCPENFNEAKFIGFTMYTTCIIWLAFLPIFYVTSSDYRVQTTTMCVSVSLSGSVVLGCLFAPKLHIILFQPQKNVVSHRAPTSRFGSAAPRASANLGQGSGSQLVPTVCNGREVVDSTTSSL
UniProt Q9JKF1: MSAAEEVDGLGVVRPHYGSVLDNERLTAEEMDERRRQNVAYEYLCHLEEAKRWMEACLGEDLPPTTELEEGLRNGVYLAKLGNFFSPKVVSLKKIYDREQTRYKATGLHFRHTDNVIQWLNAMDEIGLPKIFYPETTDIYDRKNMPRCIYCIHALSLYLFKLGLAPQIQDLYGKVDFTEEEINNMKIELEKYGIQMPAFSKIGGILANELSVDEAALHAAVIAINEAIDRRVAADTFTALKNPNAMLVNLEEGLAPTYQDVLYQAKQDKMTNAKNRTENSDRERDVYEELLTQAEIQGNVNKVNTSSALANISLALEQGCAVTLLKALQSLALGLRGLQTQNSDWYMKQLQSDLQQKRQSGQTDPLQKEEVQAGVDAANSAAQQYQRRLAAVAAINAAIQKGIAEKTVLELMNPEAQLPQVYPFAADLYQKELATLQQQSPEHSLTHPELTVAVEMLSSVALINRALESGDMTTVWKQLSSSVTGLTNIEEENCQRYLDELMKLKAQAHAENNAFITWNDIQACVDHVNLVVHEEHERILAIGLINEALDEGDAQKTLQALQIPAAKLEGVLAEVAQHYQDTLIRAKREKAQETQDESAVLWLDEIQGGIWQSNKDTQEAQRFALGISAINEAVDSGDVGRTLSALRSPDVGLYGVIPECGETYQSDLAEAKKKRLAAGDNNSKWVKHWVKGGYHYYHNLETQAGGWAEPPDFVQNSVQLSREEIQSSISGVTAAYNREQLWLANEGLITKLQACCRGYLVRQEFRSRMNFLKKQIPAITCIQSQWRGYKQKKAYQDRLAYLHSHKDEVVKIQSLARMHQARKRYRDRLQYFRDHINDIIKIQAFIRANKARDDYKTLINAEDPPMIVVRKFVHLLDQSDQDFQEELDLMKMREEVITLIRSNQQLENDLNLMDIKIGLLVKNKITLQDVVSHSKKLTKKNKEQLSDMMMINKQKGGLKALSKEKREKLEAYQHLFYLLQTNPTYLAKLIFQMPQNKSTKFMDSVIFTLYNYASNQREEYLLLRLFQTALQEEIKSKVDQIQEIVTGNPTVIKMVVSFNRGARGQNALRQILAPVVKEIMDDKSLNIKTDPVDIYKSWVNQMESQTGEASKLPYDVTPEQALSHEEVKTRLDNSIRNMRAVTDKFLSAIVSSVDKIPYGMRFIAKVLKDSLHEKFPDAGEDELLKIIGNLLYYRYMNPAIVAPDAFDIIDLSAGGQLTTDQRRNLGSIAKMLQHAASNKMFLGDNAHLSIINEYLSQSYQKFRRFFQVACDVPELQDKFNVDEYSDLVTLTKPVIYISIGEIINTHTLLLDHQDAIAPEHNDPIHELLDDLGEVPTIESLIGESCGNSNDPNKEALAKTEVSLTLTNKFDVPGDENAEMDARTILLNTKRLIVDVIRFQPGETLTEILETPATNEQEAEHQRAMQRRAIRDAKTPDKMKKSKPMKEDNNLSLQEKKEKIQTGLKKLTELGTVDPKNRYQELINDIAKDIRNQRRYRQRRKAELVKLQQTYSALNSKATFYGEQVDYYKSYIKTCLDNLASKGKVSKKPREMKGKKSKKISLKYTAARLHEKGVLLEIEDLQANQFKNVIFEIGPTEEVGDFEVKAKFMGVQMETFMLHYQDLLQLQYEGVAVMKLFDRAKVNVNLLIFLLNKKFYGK
UniProt Q5SQX6: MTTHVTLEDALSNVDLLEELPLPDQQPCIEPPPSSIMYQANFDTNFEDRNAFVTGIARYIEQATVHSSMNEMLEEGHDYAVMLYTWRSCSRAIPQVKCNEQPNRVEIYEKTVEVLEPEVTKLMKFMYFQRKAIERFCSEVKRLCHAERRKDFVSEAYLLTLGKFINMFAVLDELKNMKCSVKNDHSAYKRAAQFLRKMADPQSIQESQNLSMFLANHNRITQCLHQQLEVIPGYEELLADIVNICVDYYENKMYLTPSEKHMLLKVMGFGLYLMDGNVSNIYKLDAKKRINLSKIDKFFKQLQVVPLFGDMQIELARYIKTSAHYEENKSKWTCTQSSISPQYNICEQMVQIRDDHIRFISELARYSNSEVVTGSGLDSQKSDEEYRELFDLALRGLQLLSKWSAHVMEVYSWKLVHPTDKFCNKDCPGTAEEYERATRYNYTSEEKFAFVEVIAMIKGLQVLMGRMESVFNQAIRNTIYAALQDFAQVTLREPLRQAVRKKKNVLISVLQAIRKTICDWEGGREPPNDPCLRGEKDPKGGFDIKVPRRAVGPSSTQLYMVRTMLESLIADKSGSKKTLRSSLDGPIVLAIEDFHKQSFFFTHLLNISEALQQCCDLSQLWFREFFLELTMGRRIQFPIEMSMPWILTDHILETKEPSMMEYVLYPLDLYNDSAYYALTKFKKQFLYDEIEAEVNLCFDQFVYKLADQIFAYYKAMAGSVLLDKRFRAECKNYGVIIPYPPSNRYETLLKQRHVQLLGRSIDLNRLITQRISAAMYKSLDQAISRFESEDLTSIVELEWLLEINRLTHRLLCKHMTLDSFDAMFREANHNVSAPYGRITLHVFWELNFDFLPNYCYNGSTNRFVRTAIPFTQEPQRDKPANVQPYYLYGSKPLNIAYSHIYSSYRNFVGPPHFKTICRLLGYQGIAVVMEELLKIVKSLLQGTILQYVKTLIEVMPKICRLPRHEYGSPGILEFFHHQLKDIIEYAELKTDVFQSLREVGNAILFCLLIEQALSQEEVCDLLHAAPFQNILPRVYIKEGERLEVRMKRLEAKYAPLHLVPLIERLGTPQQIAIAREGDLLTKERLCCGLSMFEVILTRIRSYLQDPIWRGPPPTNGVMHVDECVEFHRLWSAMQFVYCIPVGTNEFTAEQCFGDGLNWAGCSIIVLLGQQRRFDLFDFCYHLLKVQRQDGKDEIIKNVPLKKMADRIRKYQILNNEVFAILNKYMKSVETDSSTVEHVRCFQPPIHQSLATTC

Assays:
[1] = molecular target: Agap2 (mouse (endogenous in adult mouse cortex)) (UniProt Q3UHD9); assay: affinity purification with mass spectrometry; immunoprecipitation of the endogenous bait (Agap2, Syngap1 or Kalirin) with its antibody and protein G Dynabeads from the PSD (DOC-soluble) fraction of adult mouse cortex, 2 mg protein, 4 degrees Celsius overnight; washes 25 mM Tris pH 7.4, 150 mM NaCl, 1 mM EDTA, 1% sodium deoxycholate; HPLC-MS/MS; positive if at least two peptides in at least two assays and absent in anti-GST controls
[2] = molecular target: Agap2 (mouse (endogenous in adult mouse cortex)) (UniProt Q3UHD9); assay: affinity purification with mass spectrometry; immunoprecipitation of endogenous Agap2 with its antibody and protein G Dynabeads from the non-PSD (Triton-soluble) fraction of adult mouse cortex, 2 mg protein, 4 degrees Celsius overnight; washes 25 mM Tris pH 7.4, 150 mM NaCl, 1 mM EDTA, 1% Triton X-100; HPLC-MS/MS; positive if at least two peptides in at least two assays and absent in anti-GST controls
[3] = molecular target: Kalirin (mouse (endogenous in adult mouse cortex)) (UniProt A2CG49); assay: affinity purification with mass spectrometry; immunoprecipitation of the endogenous bait (Agap2, Syngap1 or Kalirin) with its antibody and protein G Dynabeads from the PSD (DOC-soluble) fraction of adult mouse cortex, 2 mg protein, 4 degrees Celsius overnight; washes 25 mM Tris pH 7.4, 150 mM NaCl, 1 mM EDTA, 1% sodium deoxycholate; HPLC-MS/MS; positive if at least two peptides in at least two assays and absent in anti-GST controls
[4] = molecular target: Syngap1 (mouse (endogenous in adult mouse cortex)) (UniProt F6SEU4); assay: as above

Substance | binding [1] | binding [2] | binding [3] | binding [4]
Syngap1 (from UniProt F6SEU4 1-1340) | binds |  |  | 
Grm2 (from UniProt Q14BI2 19-872) (receptor) | binds | binds |  | 
Cyfip1 (from UniProt Q7TMB8 1-1253) | binds |  |  | 
Grm3 (from UniProt Q9QYS2 23-879) (receptor) | binds |  |  | 
Iqgap1 (from UniProt Q9JKF1 1-1657) | binds |  |  | 
Camk2a (from UniProt P11798 1-478) (enzyme) |  |  | binds | 
Cyfip2 (from UniProt Q5SQX6 1-1253) | binds | binds |  | binds
Grm1 (from UniProt P97772 21-1199) (receptor) | binds | binds |  | 
Camk2b (from UniProt P28652 1-542) (enzyme) |  |  | binds | 
Pkn2 (from UniProt Q8BWW9 1-983) (enzyme) |  | binds |  | 
Grm5 (from UniProt Q3UVX5 19-1203) (receptor) | binds |  |  | binds
